This is one part of the list. These are further read-outs of the screen, such as a control signal, another cell line or another target. No call is given for them. The list favours compounds with an active or inconclusive main result. Words in brackets tell the shape of the fitted curve; partial curves, single points and poor fits give uncertain potencies.

Consider 42 molecules from PubChem BioAssay AID662 (National Center for Advancing Translational Sciences (NCATS), 2007).

A short description of the assay: Cell signaling CRE-BLA (Fsk stim). As to conditions: CHO CRE-bla reporter (cAMP response element driving beta-lactamase), forskolin EC10, beta-lactamase ratio; measured here: 460 nm blue channel. In outline: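 Forskolin analogue NKH 477 at EC10 stimulated CRE-driven beta-lactamase in CHO cells alongside compound dilution series. Beta-lactamase was measured with CCF4, excitation 405 nm, emission ratio 460/530 nm.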
Regarding `COc1ccc(OC)c2[nH]c(=O)c(CCNS(=O)(=O)c3ccc(Cl)cc3)cc12`, the AC50 is 10 µM [rising, partial curve, poor fit].
The same measure for `CCOC(=O)C(NC(=O)CC)(Nc1ccc(S(=O)(=O)Nc2onc(C)c2C)cc1)C(F)(F)F` (configuration not stated): 0.0631 µM [falling, full curve]; for `Cc1cc(NCCCN2CCOCC2)n2ncc(-c3ccc(Cl)cc3)c2n1`: 2.51 µM [rising, full curve].
The same measure for `COc1ccc(-n2c(=O)c(-c3cn(C)c4ccccc34)nc3cnc(OC)nc32)cc1`: 0.126 µM [rising, full curve]; for `OC1CN=C2CCCc3c2n(c2ccc(Cl)cc32)C1` (configuration not stated): 25.1 µM [rising, single point]; for `O=C(Nc1ccccc1N1CCCCC1)c1ncoc1-c1ccc(F)cc1`: 12.6 µM [rising, single point].
The same measure for `COc1ccc(CCN(C)C(=O)CSc2nccn2C)cc1OC`: 10 µM [rising, single point]; for `CC(=O)Nc1ccc(S(=O)(=O)N(Cc2ccco2)CC2CCCO2)cc1` (configuration not stated): 20 µM [rising, single point]; for `Cc1nc(SCC(=O)NCc2ccco2)c2c(C)c(C)sc2n1`: 2.51 µM [rising, full curve].
`CCOC(=O)N1CCC(N2C(=O)c3ccccc3C2Nc2cc(C(=O)OC)cc(C(=O)OC)c2)CC1` (configuration not stated): the AC50 is 10 µM [rising, single point].
The same measure for `O=C1c2ccccc2-c2c1cccc2C(=O)N1CCN(C(=O)c2ccco2)CC1`: 1 µM [falling, partial curve].
Turning to `COc1cc(NS(=O)(=O)c2ccc(C)cc2)c2ncccc2c1`, the AC50 is 12.6 µM [rising, partial curve].
As for `O=C(c1ccccc1)N1CCCC(c2nc3c(nnn3Cc3ccccc3)c(=O)[nH]2)C1` (configuration not stated), the AC50 was 10 µM [rising, single point].
As to `O=c1[nH]c(CN2CCc3ccccc32)nc2scc(-c3cccs3)c12`, the concentration at half-maximal activity (AC50) was 0.0501 µM [falling, full curve, poor fit].
The same measure for `COc1ccc2c(c1)nc1n2CN(CC2CCCO2)CN1Cc1ccccc1` (configuration not stated): 10 µM [rising, single point]; for `COC(=O)c1sccc1NC(=O)c1ccco1`: 7.94 µM [rising, partial curve].
Consider `COc1ccccc1N(CC(=O)NCCSc1ccccc1)S(C)(=O)=O`, for which the AC50 was 0.501 µM [falling, full curve].
On to `COc1cccc2cc(-c3nc(-c4cccs4)cs3)c(=O)oc12`, for which the concentration at half-maximal activity (AC50) was 12.6 µM [rising, partial curve].
The same measure for `O=C(NCc1cccnc1)C1CC(=O)N(C2CCCCC2)C1` (configuration not stated): 0.631 µM [rising, full curve]; for `N=c1c(S(=O)(=O)c2ccc(Cl)cc2)cc2c(=O)n3ccccc3nc2n1CCN1CCOCC1`: 5.01 µM [rising, partial curve].
With `COC(=O)C1C(=O)C2=C(CC1C)NC(C)=C(C(=O)OCc1ccc(OC)cc1)C2c1ccc(C)o1` (configuration not stated), the AC50 is 10 µM [rising, single point].
The same measure for `COCc1cc(C)nc(Nc2ccccc2C)c1C#N`: 12.6 µM [rising, single point]; for `Cc1cc(C)cc(C(=O)n2cnnc2N)c1`: 2.51 µM [falling, partial curve].
The figure for `O=C(c1ccccc1Cl)N1CCCC(c2nc3c(nnn3Cc3ccccc3)c(=O)[nH]2)C1` (configuration not stated) is 10 µM [rising, single point]; for `Cc1cc(C)c(NC(=O)CS(=O)CC(=O)N2CCN(c3ccccc3)CC2)c(C)c1` (configuration not stated) it is 20 µM [falling, single point]; for `COc1cc(NC(=O)c2ccc(S(=O)(=O)N(C)C)cc2)cc(OC)c1OC` it is 12.6 µM [rising, partial curve].
`CCC1CCCCN1Cc1nc2c(c(=O)n(C)c(=O)n2C)n1CC(C)C` (configuration not stated): the AC50 is 12.6 µM [rising, single point].
The figure for `CCNc1ncc2nc(-c3ccc(F)cc3)c(=O)n(CCC#N)c2n1` is 3.98 µM [rising, partial curve]; for `CC(=O)c1c(C)[nH]c(C(=O)NCCc2cccc(C)c2)c1C` it is 3.98 µM [rising, single point]; for `O=C(Cc1c[nH]c2ccccc12)Nc1nc2ccccc2[nH]1` it is 0.126 µM [falling, full curve, poor fit].
The same measure for `CNc1nc(-c2cccc(C#N)c2)nc2ccccc12`: 10 µM [rising, single point].
The same measure for `COc1ccc(Cl)c(Cn2c(NCC(C)O)nc3c2c(=O)n(C)c(=O)n3C)c1` (configuration not stated): 15.8 µM [rising, partial curve]; for `O=C(CN1CCN(S(=O)(=O)c2ccc(F)cc2)CC1)Nc1ccc2c(c1)OCCO2`: 31.6 µM [falling, partial curve, poor fit]; for `Cc1ccc(C(=O)/C=C/Nc2ccccc2C(N)=O)o1`: 12.6 µM [rising, partial curve].
With `Cc1sc(NC(=O)c2ccc(Cl)s2)c(C(N)=O)c1C`, the half-maximal activity concentration (AC50) was 25.1 µM [rising, single point].
The same measure for `CCOC(=O)C1=C(N2CCCCC2)c2cc3c(n2C1=O)CCCC3`: 10 µM [rising, single point]; for `CN(C)C(=O)c1ccc(-c2ccc3ncnc(NCc4cccs4)c3c2)cc1`: 25.1 µM [rising, single point].
For the molecule `COc1cccc(-n2nnc3c(=O)n(Cc4ccc(F)cc4)cnc32)c1`, the AC50 was 12.6 µM [rising, single point].
For `O=C(c1cc2ccccc2oc1=O)N1CCCN(C(=O)c2cc3ccccc3oc2=O)CC1`, the AC50 is 20 µM [falling, partial curve, poor fit].
Consider `CN(C)c1ncc2nc(-c3ccc(Cl)cc3)c(=O)n(CCC#N)c2n1`, for which the AC50 is 5.01 µM [rising, partial curve].
The same measure for `Cc1ccc(Cl)cc1N1CCN(C(=O)CCS(=O)(=O)c2cccc3nonc23)CC1`: 0.01 µM [falling, full curve, poor fit]; for `CSCCC(C(=O)Nc1ccc2c(c1)OCO2)N1C(=O)c2ccccc2C1=O` (configuration not stated): 0.0251 µM [falling, full curve, poor fit].

For orientation: AC50 means the concentration giving half of the maximal activity seen.
